Results as given in patent US11884708B2, “Stapled peptide inhibitors of nemo as potential anti-inflammatory and anti-cancer drugs” (INSTITUT PASTEUR, priority 2015, dated 2024).
For at least one compound, name, drawing or mass did not settle the structure. Where a SMILES comes first, the peptide text is derived from it.

Chains of the proteins cited; added tags and fusions are not shown. Residues count along the entry.
UniProt O88522, 242-343 limits assumed: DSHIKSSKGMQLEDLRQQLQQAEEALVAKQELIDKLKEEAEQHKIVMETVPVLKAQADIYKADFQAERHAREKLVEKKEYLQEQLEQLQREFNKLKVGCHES

Molecular target: CC2-LZ domain of NEMO (Mus musculus, UniProt O88522)
Test: Fluorescence anisotropy/polarization binding assay
Details: read-out: KD of UBI with other CPPs; N-terminal CPP other than antennapedia; peptide concentration not given

Compound: CC[C@H](C)[C@H](NC(=O)[C@H](CC(=O)O)NC(=O)[C@H](C)NC(=O)[C@H](CCC(N)=O)NC(=O)[C@H](C)NC(=O)[C@H](CCCCN)NC(=O)[C@H](CC(C)C)NC(=O)[C@H](CCCNC(=N)N)NC(=O)[C@H](CCCNC(=N)N)NC(=O)[C@H](CCCNC(=N)N)NC(=O)[C@H](CCC(N)=O)NC(=O)[C@H](CCCNC(=N)N)NC(=O)[C@H](CCCNC(=N)N)NC(=O)[C@H](CCCCN)NC(=O)[C@H](CCCCN)NC(=O)[C@H](CCCNC(=N)N)NC(=O)CNC(=O)[C@H](Cc1ccc(O)cc1)NC(C)=O)C(=O)N[C@@H](Cc1ccc(O)cc1)C(=O)N[C@@H](CCCCN)C(=O)N[C@@H](C)C(=O)N[C@@H](CCCNC(=N)N)C(=O)N[C@@H](Cc1ccccc1)C(=O)N[C@@H](CCC(N)=O)C(=O)N[C@@H](C)C(=O)N[C@@H](CCC(=O)O)C(=O)N[C@@H](CCCNC(=N)N)C(=O)N[C@@H](Cc1c[nH]cn1)C(=O)N[C@@H](C)C(=O)N[C@@H](CCCNC(=N)N)C(=O)N[C@@H](CCC(=O)O)C(=O)N[C@@H](CCCCN)C(N)=O [TAT, reference compound] (Ac-YGRKKRRQRRRLKAQADIYKARFQAERHAREK-NH2; N-terminus and C-terminus assumed)
- Kd: 24 ± 4 µM
